Measurements taken from PubChem BioAssay AID504467 (National Center for Advancing Translational Sciences (NCATS), 2011).
Among all 330,000 compounds or so, about 7,700 (2.3%) were called active. Inconclusive means that the source gave no clear call. Such entries were picked first, then a sample of the others. The call rests on the fitted dose curve; in most records, active means well fitted inhibition curve with a large enough effect; inconclusive means small, poorly fitted or top-dose-only effect, or effect the other way; inactive means flat fitted curve, though single readings scatter. Potencies beside an inconclusive call are fits to weak or partial responses and may not hold up.

test: qHTS screen for small molecules that inhibit ELG1-dependent DNA repair in human embryonic kidney (HEK293T) cells expressing luciferase-tagged ELG1; conditions: HEK293T ELG1-luciferase reporter, luminescence, 16 h, DNA damage induced by 5-fluorouridine; activity change, negative = inhibition: at 46.1 µM (top of the series); further: nearly all actives have a fitted effect of over 55% in size
Summary of the method: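 Quantitative HTS, concentration-response format. 2,000 cells/well co-treated with 5-fluorouridine and compound, 16 hr in 5% CO2 at 37 °C; ONE-Glo luminescence read after 30 min.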
On the % scale 0 is the no-effect control and ±100 the full control effect; potency means the concentration at half of the fitted maximal effect.

SMILES	Potency	activity change, negative = inhibition
Cc1ccc2c(c1)nnn2C1CCN(C(=O)NC23CC4CC(CC(C4)C2)C3)CC1	inconclusive: 32.6 µM [activator, partial curve, poor fit]	–
CCOC(=O)c1c(NC(=S)Nc2ccccc2)sc2c1CC(C)(C)SC2	inconclusive: 18.4 µM [inhibitor, partial curve, poor fit]	–
Cc1ccc2oc(=O)c3cc(C(=O)NCc4ccco4)sc3c2c1	inconclusive: 16.4 µM [activator, partial curve, poor fit]	–
COC(=O)c1ccc(COC(=O)c2cc3ccccc3oc2=O)cc1	inconclusive: 17.8 µM [activator, single point]	–
NS(=O)(=O)c1cccc(NC(=O)CSc2nn(-c3ccccc3)c(=S)s2)c1	inconclusive: 23.1 µM [inhibitor, partial curve]	–
Cn1cnnc1Sc1ccc(C(=O)OCC(=O)NC2CC2)cc1[N+](=O)[O-]	–	inactive: 14.9%
Cc1cccc(C)c1NC(=S)NN1CCN(C)CC1	inconclusive: 29.1 µM [activator, single point]	–
O=C(NCC1CCCO1)c1ccc(S(=O)(=O)N2CCC(c3nc4ccc(Cl)cc4[nH]3)CC2)cc1 (stereo unspecified)	active: 13 µM	–
O=c1[nH]c(N/N=C/c2ccc(O)cc2)nc2ccccc12	inconclusive: 4.61 µM [activator, partial curve]	–
O=[N+]([O-])c1ccc(-c2n(-c3ccccn3)c3ccccc3[n+]2-c2ccccn2)cc1	inconclusive: 23.1 µM [inhibitor, partial curve]	–
Cc1ccc(Nc2nc(N)c([N+](=O)[O-])c(N3CCC(C)CC3)n2)cc1C	inconclusive: 32.6 µM [inhibitor, single point]	–
CN1CCN(c2ccccc2NC(=O)c2ccc(-c3ccc(Br)cc3)o2)CC1	inconclusive: 10.3 µM [inhibitor, partial curve]	–
CCN(CC)CC(=O)N1c2ccccc2CCc2ccc(NC(=O)c3cc(OC)c(OC)c(OC)c3)cc21	inconclusive: 18.3 µM [activator, partial curve]	–
Cc1cc(Cl)c(S(=O)(=O)NCC2CCCO2)cc1OCC(=O)NC1CCCCC1 (stereo unspecified)	inconclusive: 18.4 µM [inhibitor, partial curve]	–
CCc1ccc(C(=O)NNC(=O)c2cccc(S(=O)(=O)N3CCN(C)CC3)c2)cc1	–	inactive: 12.8%
CCOc1ccc(-c2cc(N)n(S(=O)(=O)c3ccc(OC)c(OC)c3)n2)cc1	inconclusive: 20.6 µM [inhibitor, partial curve, poor fit]	–
CC1CN(c2nc3c(c(=O)[nH]c(=O)n3C)n2Cc2ccccc2F)CC(C)O1 (stereo unspecified)	inconclusive: 15.8 µM [activator, partial curve, poor fit]	–
CCc1cc2c(=O)c(-c3cnn(-c4ccccc4)c3)c(C)oc2cc1OCC(=O)Nc1ccc(F)c(F)c1	–	inactive: -19.4%
CCOP(=O)(OCC)C1NC(=O)N(c2ccccc2)C1=O (stereo unspecified)	inconclusive: 16.4 µM [activator, partial curve, poor fit]	–
O=C1c2cccc3cc([N+](=O)[O-])cc(c23)C(=O)N1CC1CCCO1 (stereo unspecified)	–	inactive: -2.49%
CCNC(=O)CSc1nnc(CN2CCCCCC2=O)n1-c1ccccn1	–	inactive: 12.4%

SMILES	Potency	activity change, negative = inhibition
O=C1c2[nH]nc(-c3ccccc3O)c2C(c2cccc(Cl)c2)N1Cc1ccco1 (stereo unspecified)	–	inactive: -7.38%
CC(C)OCCCNC(=O)c1c(N)n(/N=C/c2cccs2)c2nc3ccccc3nc12	–	inactive: -15.8%
Cc1nn(CC(=O)NCCCN2CC(C)CC(C)C2)c(=O)c2cccn12 (stereo unspecified)	inconclusive: 16.4 µM [activator, partial curve, poor fit]	–
CCSc1nnc(NC(=O)C2CCCCC2C(=O)OCC(F)(F)C(F)F)s1 (stereo unspecified)	inconclusive: 0.082 µM [activator, partial curve, poor fit]	–
O=C(c1cnn2c(C(F)F)cc(-c3ccccc3)nc12)N1CCc2ccccc21	inconclusive: 29.1 µM [inhibitor, single point]	–
COc1ccc(-c2nnc(SCc3ccc(C(=O)O)cc3)o2)cc1OC	inconclusive: 7.08 µM [inhibitor, partial curve, poor fit]	–
Cc1ccccc1NC(=O)c1cccc(NC(=O)CCC(=O)O)c1	–	inactive: 7.54%
COc1ccnc(Oc2ccccc2)c1C(=O)N/C=N/OCc1ccccc1F	inconclusive: 18.3 µM [inhibitor, single point]	–
Cc1cccc(/C=N/NC(=O)c2ccccc2OCc2cccc(Br)c2)n1	active: 16.4 µM	–
COc1ccccc1OCC(=O)Nc1nnc(C2CCCC2)s1	inconclusive: 0.651 µM [activator, full curve]	–
O=C1N/C(=N/c2ccccn2)SC1Cc1ccccc1 (stereo unspecified)	inconclusive: 20.6 µM [activator, single point]	–
COCCCNC(=O)/C(C#N)=C/c1c(N2CCN(c3ccc(OC)cc3)CC2)nc2c(C)cccn2c1=O	inconclusive: 29.1 µM [inhibitor, single point]	–
CC(=O)c1cccc(Nc2nc(-c3sc(N)nc3C)cs2)c1	active: 8.2 µM	–
CCN(C(=O)CSc1nnc(-c2ccncc2)n1-c1ccccc1)C1CCS(=O)(=O)C1 (stereo unspecified)	–	inactive: -2.3%
O=C(Nc1ccccc1)N1CCc2c([nH]c3ccccc23)C1C(F)(F)F (stereo unspecified)	inconclusive: 29.1 µM [inhibitor, single point]	–
Cc1cc(N/N=C/c2cccc(Cl)c2)nc(-n2nc(C)cc2C)n1	active: 16.4 µM	–
O=C(c1cc(-c2ccc(O)cc2)on1)N1CCN(c2ccc(F)cc2)CC1	inconclusive: 3.66 µM [inhibitor, partial curve, poor fit]	–
Cc1ccc(NC(=S)c2ccc(N(C)C)cc2)cc1	inconclusive: 4.61 µM [activator, partial curve]	–
Cc1c(Cl)c([N+](=O)[O-])nn1CC(=O)NCc1cccs1	inconclusive: 23.1 µM [activator, partial curve, poor fit]	–
Cc1noc(/C=C/c2ccco2)c1S(=O)(=O)N1CCC(C(=O)N2c3ccccc3CC2C)CC1 (stereo unspecified)	inconclusive: 9.2 µM [inhibitor, partial curve]	–
